No constants are given. Whether binding was seen depends on the method and setting. In cells and extracts the contact can be indirect. These calls come from enrichment with a bait or labelling near it, and not all partners need be listed. For some of these results: Where a sequence is shown, tags or fusion partners need not be part of it.

The chains behind the UniProt entries cited, without tags or fusion partners. Where a name states a change or a piece, a line headed by the entry shows the natural chain unless it says otherwise.
UniProt Q9UYX9: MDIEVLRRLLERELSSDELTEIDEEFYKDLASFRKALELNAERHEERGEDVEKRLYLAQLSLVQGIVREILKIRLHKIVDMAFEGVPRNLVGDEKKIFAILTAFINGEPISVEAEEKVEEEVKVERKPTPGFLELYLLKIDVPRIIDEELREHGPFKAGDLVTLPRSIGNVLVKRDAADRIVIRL

Common to all, as to experiment: affinity purification with mass spectrometry; 10-30 ug of HIS- or GST-tagged bait immobilised on 2 mg cobalt or glutathione magnetic beads, incubated with 4 ml P. abyssi protein extract 3 h at 4°C, washed with PBS; two assays for each bait, without (nuc-) and with (nuc+) DNAse/RNAse treatment of the purified complexes; preys identified by LC-MS/MS; only the target purified

In test [1] the target is Gins 51 (Q9UYX9), HIS-tagged bait (Pyrococcus abyssi) (UniProt Q9UYX9).
Test [2] concerns the target T1, Primase small subunit P41 (Q9V292), HIS-tagged (Pyrococcus abyssi) (UniProt Q9V292).
T1 sequence: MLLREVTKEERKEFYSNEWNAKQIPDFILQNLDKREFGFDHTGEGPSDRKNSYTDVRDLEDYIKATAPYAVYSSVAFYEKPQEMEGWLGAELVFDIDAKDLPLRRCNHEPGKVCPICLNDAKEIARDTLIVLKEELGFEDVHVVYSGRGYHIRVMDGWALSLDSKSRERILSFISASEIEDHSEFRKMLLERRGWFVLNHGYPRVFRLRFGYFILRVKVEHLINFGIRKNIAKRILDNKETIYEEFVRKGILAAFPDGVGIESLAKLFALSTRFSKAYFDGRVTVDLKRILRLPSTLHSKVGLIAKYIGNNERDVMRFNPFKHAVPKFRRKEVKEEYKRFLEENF

The target in test [3] is T2, RadB (Q9V2F6), HIS-tagged bait (Pyrococcus abyssi) (UniProt Q9V2F6).
T2 sequence: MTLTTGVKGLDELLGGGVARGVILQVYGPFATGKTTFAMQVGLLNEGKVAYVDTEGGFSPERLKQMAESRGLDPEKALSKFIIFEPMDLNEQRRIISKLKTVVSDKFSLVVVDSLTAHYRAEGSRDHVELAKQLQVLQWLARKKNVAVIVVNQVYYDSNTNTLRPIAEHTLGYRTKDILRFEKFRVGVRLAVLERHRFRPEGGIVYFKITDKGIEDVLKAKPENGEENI

For test [4], the target named is T3, PCNA (Q9UYX8), HIS-tagged bait (Pyrococcus abyssi) (UniProt Q9UYX8).
T3 sequence: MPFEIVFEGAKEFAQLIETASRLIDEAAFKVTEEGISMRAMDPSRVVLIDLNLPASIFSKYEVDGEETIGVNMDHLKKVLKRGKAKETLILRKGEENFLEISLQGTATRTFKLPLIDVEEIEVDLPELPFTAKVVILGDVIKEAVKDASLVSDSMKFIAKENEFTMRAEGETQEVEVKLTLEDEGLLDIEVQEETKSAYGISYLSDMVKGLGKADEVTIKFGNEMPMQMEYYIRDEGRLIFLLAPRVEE

B1: exonuclease subunit of the DNA polymerase D, endogenous (protein, UniProt Q9V2F3 1-619)
chain: MDELVKALERAGYLLTPSAYYLLVDHFKEGKFSLVELVKFAKSKGVFIIDGDLAYEFLQFLGLGVPQEIKESYISTGEEAEKTVESQETRASELEEGGVSQVSSGELQELKEESPEISTTEEEIGGLELVQSSISTGSEVEYNNGENGESVVVLDKYGYPILYAPEEIGEEKEYSKYEDVVIEWNPSVTPVQIEKNYEVKFDVRQVKLRPPKVKNGSGKEGEIIVEAYASLFKSRLSKLKRILRENPEISNVVDIGKLNYVSGDEEVTIIGLVNSKRETNRGLIFEVEDKTGIVKVFLPKDSEDYREAFKVLPDAVVAFKGFYSKKGIFFANKFYLPDVPLYRKQKPPLEEKVYAILISDIHVGSREFCEKAFLKFLEWLNGHVESKEEEEIVSRVKYLIIAGDVVDGIGIYPGQYSDLVIPDIFDQYEALANLLANVPEHITMFIGPGNHDAARPAIPQPEFYKEYAKPIYKLKNAIIISNPAVIRLHGRDFLIAHGRGIEDVVSFVPGLTHHKPGLPMVELLKMRHLAPTFGGKVPIAPDPEDLLVIEEVPDLVQMGHVHVYDAVVYRGVQLVNSATWQAQTEFQKMVNIVPTPAKVPVVDVESARVVKVLDFSGWC
Consider B1, for which the binding entry in test [1] was “binds”.

B2: DNA ligase, endogenous (enzyme, UniProt P0CL74 1-559)
chain: MRYIELAQLYQKLEKTTMKLIKTRLVADFLKKVPEDHLEFIPYLILGDVFPEWDERELGVGEKLLIKAVSMATGIDSKEIENSVKDTGDLGESIALAVKRRKQKSFFSQPLTIKRVYQTLVKVAETTGEGSQDKKMKYLANLFMDAEPIEAKYIARTVLGTMRTGVAEGLLRDAISLAFNVKVELVERAYMLTSDFGFVAKIAKTEGNDGLAKVTIQIGKPIKPMLAQQAANIKEALLEMGGEAEFEIKYDGARVQVHKDGEKVTIYSRRLENVTRAIPEIVEAIKEALKPAKAIVEGELVAIGEDGRPLPFQYVLRRFRRKYNIEEMMEKIPLELNLFDVLYVDGVSLIDTKFMERRKKLEEIVEANGKVKIAENLITKNVEEAEQFYKRALEMGHEGLMAKRLDAIYEPGNRGKKWLKIKPTMENLDLVIIGAEWGEGRRAHLLGSFILGAYDPETGEFLEVGKVGSGFTDDDLVEFTKMLRPLIIKEEGKRVWIQPKVVIEVTYQEIQKSPKYRSGFALRFPRYVALREDKGPEDADTIERIAQLYELQERMKGKV
For B2, the binding result in test [2] and in test [3] was “binds” each time.

B3: NucS, endogenous (enzyme, UniProt Q9V2E8 1-251)
chain: MRKVIIKENPSEEEIKELLDLAEKHGGVVTIFARCKVHYEGRAKSELGEGDRIIIIKPDGSFLIHQNKKREPVNWQPPGSKVTFKENSIISIRRRPYERLEVEIIEPYSLVVFLAEDYEELALTGSEAEMANLIFENPRVIEEGFKPIYREKPIRHGIVDVMGVDKDGNIVVLELKRRKADLHAVSQLKRYVDSLKEEYGENVRGILVAPSLTEGAKKLLEKEGLEFRKLEPPKKGNEKRSKQKTLDFFTP
On to B3, for which the binding entry in test [4] is “binds”.

The record behind these values is article PMC3820547.
